Experimental data as given in the supplement of paper PMC10849652.
This is one part of the list.

Sequences of proteins named here, by UniProt entry; tags and fusion partners are left off. A change or cut given only in a name is not applied to a line headed by its entry.
UniProt P52565: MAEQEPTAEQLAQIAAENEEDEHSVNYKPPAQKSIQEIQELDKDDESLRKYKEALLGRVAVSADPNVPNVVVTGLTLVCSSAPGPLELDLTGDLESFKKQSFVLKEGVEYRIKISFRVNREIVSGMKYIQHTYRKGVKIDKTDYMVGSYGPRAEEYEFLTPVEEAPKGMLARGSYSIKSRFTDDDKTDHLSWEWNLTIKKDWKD
UniProt Q6ZSZ5: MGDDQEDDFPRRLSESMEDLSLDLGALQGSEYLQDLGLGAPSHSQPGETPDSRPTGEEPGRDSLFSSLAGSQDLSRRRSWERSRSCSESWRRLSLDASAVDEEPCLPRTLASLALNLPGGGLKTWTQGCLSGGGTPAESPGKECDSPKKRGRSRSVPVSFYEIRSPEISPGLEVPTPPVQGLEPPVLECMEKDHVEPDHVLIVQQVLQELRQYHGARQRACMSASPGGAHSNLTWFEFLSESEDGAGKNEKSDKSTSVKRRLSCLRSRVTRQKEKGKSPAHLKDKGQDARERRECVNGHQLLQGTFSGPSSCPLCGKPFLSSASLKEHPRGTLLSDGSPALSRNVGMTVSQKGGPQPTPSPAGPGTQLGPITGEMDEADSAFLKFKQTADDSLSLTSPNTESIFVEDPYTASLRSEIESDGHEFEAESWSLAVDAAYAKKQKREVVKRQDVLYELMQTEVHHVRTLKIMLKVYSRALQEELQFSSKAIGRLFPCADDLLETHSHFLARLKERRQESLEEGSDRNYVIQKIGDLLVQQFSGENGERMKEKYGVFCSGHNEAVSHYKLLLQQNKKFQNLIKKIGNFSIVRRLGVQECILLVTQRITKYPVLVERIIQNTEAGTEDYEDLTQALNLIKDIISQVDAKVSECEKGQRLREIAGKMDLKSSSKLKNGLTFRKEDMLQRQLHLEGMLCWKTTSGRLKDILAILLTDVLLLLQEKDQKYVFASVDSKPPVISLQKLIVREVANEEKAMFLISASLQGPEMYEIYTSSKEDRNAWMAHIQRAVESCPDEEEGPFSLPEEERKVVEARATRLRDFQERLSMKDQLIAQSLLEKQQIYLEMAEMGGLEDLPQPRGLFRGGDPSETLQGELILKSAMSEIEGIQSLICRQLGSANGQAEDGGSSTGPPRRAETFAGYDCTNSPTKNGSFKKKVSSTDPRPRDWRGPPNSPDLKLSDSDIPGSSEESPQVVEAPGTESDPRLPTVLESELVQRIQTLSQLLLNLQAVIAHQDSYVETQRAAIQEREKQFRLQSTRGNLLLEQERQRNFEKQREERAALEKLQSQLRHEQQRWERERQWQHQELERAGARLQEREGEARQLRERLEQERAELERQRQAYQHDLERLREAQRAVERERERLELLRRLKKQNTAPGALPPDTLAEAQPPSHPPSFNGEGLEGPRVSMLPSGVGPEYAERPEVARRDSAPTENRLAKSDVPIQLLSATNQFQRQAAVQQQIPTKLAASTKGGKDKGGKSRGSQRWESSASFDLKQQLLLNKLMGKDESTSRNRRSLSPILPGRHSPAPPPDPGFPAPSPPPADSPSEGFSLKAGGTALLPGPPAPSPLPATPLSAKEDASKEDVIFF
UniProt Q9NRY4: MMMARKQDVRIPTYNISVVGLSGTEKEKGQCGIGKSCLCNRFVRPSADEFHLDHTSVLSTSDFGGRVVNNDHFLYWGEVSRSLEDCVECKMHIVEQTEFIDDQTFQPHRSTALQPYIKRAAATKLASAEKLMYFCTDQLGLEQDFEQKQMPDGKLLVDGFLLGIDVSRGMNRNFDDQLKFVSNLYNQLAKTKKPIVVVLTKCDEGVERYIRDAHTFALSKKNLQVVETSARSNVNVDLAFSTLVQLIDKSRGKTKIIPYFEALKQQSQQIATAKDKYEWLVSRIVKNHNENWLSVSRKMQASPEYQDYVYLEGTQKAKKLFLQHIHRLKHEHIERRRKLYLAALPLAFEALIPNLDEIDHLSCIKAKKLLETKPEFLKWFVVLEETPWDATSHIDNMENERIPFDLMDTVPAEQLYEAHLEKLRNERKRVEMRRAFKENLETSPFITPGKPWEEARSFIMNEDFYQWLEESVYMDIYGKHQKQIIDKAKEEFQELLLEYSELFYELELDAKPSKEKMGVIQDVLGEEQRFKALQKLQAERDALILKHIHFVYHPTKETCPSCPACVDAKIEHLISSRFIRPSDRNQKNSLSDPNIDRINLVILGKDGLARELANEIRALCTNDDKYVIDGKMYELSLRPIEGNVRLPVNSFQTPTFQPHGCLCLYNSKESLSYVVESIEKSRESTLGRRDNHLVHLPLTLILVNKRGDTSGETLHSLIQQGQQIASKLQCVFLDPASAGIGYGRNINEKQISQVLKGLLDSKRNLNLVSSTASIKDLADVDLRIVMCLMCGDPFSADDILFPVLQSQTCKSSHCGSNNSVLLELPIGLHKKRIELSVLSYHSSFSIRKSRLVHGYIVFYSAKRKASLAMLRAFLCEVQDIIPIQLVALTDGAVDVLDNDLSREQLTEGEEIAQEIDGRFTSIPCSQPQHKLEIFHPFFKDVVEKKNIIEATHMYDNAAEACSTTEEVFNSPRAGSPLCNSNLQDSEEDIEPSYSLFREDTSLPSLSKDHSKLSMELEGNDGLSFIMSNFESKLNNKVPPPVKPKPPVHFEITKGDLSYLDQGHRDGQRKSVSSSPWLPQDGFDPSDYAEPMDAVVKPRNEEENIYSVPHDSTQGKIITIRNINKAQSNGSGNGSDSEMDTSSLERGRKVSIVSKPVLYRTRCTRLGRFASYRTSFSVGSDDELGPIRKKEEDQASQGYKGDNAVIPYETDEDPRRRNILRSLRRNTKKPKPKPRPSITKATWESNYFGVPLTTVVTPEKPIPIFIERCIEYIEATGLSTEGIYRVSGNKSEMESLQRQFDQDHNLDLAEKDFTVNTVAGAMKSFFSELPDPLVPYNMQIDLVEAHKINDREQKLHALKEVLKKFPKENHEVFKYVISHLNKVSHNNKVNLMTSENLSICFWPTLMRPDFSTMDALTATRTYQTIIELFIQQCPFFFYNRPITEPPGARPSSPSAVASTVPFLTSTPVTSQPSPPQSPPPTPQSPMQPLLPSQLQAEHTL
UniProt P10398: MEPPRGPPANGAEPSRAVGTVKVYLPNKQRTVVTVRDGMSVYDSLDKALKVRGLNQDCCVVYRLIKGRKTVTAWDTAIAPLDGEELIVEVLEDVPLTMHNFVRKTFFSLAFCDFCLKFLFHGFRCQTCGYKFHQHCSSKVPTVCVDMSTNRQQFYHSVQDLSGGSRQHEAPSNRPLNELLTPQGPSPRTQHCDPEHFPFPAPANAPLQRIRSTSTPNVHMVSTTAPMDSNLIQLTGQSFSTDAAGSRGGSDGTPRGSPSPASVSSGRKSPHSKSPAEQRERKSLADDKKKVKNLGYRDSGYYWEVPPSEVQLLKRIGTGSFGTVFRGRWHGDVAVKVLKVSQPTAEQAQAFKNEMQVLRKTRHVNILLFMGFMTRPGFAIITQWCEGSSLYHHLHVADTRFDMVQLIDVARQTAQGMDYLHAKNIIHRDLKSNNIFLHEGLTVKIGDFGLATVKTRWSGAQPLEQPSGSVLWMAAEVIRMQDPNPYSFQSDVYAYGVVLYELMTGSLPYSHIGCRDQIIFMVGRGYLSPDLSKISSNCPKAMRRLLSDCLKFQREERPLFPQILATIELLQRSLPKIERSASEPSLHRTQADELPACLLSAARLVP
UniProt P15848: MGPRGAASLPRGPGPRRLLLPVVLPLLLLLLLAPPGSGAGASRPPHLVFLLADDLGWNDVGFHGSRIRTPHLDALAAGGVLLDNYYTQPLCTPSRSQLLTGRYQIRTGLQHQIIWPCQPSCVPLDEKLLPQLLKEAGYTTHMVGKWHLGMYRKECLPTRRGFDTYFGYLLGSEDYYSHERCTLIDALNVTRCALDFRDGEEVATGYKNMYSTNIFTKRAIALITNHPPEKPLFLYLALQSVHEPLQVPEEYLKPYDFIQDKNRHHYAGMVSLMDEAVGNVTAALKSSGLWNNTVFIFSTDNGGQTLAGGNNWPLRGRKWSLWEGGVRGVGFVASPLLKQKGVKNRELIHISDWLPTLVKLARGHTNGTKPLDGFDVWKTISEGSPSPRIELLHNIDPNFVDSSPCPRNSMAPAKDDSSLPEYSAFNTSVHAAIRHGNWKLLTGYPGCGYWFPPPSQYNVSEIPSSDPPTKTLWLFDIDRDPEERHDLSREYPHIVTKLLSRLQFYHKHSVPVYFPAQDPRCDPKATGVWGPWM
UniProt Q06481, whole entry, looked up: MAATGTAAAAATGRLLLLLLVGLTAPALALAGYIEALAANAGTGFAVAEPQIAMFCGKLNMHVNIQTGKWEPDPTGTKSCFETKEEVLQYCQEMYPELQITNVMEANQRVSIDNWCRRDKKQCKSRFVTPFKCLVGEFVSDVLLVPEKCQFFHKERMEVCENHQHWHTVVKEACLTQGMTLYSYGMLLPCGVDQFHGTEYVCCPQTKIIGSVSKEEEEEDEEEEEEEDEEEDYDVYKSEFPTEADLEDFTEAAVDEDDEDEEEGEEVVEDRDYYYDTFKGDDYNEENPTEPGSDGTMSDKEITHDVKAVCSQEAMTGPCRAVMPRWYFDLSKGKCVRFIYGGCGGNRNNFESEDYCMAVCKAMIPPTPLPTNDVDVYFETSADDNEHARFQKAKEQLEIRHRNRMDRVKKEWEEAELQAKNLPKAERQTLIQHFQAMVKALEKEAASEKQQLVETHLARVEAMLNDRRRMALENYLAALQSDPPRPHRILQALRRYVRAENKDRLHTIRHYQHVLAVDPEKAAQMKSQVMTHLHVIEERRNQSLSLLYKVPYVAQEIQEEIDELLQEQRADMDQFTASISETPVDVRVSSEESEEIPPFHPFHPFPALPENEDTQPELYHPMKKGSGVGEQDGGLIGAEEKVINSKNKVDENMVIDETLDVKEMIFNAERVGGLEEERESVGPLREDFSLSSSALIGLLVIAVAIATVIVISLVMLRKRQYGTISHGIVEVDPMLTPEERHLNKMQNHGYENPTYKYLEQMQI
UniProt P53367: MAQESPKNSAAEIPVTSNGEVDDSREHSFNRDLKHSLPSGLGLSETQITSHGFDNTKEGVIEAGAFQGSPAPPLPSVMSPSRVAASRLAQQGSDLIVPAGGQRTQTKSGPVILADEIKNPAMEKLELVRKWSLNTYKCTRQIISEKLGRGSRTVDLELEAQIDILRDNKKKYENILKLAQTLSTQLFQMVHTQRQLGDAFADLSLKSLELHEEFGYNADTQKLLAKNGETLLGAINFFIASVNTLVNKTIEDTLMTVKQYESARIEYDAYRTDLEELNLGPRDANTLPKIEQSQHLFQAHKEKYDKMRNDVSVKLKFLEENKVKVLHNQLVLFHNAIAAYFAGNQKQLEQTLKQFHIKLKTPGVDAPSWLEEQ
UniProt Q99856: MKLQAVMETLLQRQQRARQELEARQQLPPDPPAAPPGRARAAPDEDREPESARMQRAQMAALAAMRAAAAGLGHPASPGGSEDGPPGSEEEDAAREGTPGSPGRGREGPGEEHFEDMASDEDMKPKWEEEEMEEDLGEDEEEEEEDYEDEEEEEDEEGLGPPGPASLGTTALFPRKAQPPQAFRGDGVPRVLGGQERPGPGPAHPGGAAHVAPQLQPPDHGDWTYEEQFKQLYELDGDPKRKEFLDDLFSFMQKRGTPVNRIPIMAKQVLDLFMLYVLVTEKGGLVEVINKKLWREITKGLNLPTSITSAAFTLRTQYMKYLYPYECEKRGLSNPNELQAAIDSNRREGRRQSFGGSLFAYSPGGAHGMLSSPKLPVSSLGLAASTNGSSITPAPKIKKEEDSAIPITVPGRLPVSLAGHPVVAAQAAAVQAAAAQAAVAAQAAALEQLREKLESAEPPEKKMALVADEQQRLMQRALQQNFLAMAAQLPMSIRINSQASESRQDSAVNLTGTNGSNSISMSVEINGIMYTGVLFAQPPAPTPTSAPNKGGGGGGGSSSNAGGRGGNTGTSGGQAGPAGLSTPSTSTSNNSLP
UniProt P62330: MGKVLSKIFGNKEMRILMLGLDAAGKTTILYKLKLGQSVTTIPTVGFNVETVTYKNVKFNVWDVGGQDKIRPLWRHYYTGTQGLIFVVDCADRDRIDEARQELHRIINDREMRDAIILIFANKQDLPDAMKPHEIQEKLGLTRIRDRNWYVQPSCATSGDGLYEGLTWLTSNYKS
UniProt P53365: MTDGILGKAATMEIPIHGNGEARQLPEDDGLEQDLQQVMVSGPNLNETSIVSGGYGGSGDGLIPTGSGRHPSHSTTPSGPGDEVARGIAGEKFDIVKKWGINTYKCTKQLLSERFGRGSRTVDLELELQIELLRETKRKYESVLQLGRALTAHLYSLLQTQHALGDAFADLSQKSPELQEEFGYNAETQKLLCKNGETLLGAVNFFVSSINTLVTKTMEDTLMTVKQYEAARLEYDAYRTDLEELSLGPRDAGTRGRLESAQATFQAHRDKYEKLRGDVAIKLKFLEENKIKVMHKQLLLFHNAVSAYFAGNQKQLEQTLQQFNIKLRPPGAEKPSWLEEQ

Experiments:
Test in all cases: log2 fold change, soluble protein after heating vs DMSO (PISA); higher = thermal stabilisation; K562 lysate, 10 uM; active = over 0.2 and 3.5 SD of the protein, either way, in both replicates (recomputed)
alvocidib = compound: CN1CC[C@H](c2c(O)cc(O)c3c(=O)cc(-c4ccccc4Cl)oc23)[C@H](O)C1 [alvocidib]
In short: (§1)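 Following dounce homogenisation of K562 pellets in PBS pH 7.4 with 1 mM MgCl2, crude extract at 1 mg/mL protein was incubated for 30 min with 10 μM compound. Aliquots were then heated for 3 min over 48°C-58°C and pooled, NP-40 was added to 0.5% at 4°C, and soluble protein was recovered as the supernatant at 21,000xg for 90 min. Channel-sum-equalised TMTpro 16plex LC-MS/MS quantified this protein. Each value, from duplicates, is a log-two fold change in thermal stability relative to solvent controls.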

Tubastatin A = compound: CN1CCc2c(c3ccccc3n2Cc2ccc(C(=O)NO)cc2)C1 [Tubastatin A]
In short: as §1

[1] = compound: CNC(=O)C1=CC=CC=C1NC2=NC(=NC=C2Cl)NC3=C(C=C(C=C3)N4CCOCC4)OC
In short: as §1

defactinib = compound: CNC(=O)c1ccc(Nc2ncc(C(F)(F)F)c(NCc3nccnc3N(C)S(C)(=O)=O)n2)cc1 [defactinib]
In short: as §1

[2] = compound: CNc1nc(-c2ccc3c(N)n[nH]c3c2)cc(N2C[C@@H](C(=O)NC3CCCCC3)CC[C@H]2C)n1
In short: as §1

encorafenib = compound: COC(=O)N[C@@H](C)CNc1nccc(-c2cn(C(C)C)nc2-c2cc(Cl)cc(NS(C)(=O)=O)c2F)n1 [encorafenib]
In short: as §1

[3] = compound: COC(=O)[C@H](CCSC)NC(=O)C1=C(C=C(C=C1)NC[C@H](CS)N)C2=CC=CC=C2
In short: as §1

alisertib = compound: COc1cc(Nc2ncc3c(n2)-c2ccc(Cl)cc2C(c2c(F)cccc2OC)=NC3)ccc1C(=O)O [alisertib]
In short: as §1

[4] = compound: COc1cc2nc(-c3cc(F)ccc3O)nc(N[C@@H]3CNC[C@H]3C(C)(C)O)c2cc1OC
In short: as §1

gefitinib = compound: COc1cc2ncnc(Nc3ccc(F)c(Cl)c3)c2cc1OCCCN1CCOCC1 [gefitinib]
In short: as §1

lapatinib = compound: CS(=O)(=O)CCNCc1ccc(-c2ccc3ncnc(Nc4ccc(OCc5cccc(F)c5)c(Cl)c4)c3c2)o1 [lapatinib]
In short: as §1

pictilisib = compound: CS(=O)(=O)N1CCN(Cc2cc3nc(-c4cccc5[nH]ncc45)nc(N4CCOCC4)c3s2)CC1 [pictilisib]
In short: as §1

crizotinib = compound: C[C@@H](Oc1cc(-c2cnn(C3CCNCC3)c2)cnc1N)c1c(Cl)ccc(F)c1Cl [crizotinib]
In short: as §1

[5] = compound: C[C@H](C1=CC=C(C=C1)C(=O)NC2=C3C=CNC3=NC=C2)N
In short: as §1

duvelisib = compound: C[C@H](Nc1ncnc2nc[nH]c12)c1cc2cccc(Cl)c2c(=O)n1-c1ccccc1 [duvelisib]
In short: as §1

gandotinib = compound: Cc1cc(Nc2cc(CN3CCOCC3)c3nc(C)c(Cc4ccc(Cl)cc4F)n3n2)n[nH]1 [gandotinib]
In short: as §1

tozasertib = compound: Cc1cc(Nc2cc(N3CCN(C)CC3)nc(Sc3ccc(NC(=O)C4CC4)cc3)n2)n[nH]1 [tozasertib]
In short: as §1

doramapimod = compound: Cc1ccc(-n2nc(C(C)(C)C)cc2NC(=O)Nc2ccc(OCCN3CCOCC3)c3ccccc23)cc1 [doramapimod]
In short: as §1

bafetinib = compound: Cc1ccc(NC(=O)c2ccc(CN3CC[C@H](N(C)C)C3)c(C(F)(F)F)c2)cc1Nc1nccc(-c2cncnc2)n1 [bafetinib]
In short: as §1

[6] = compound: Cc1cccc(CC(=O)N2CCc3c2ccc(-c2cn(C)c4ncnc(N)c24)c3F)n1
In short: as §1

Measured: log2 fold change

ARPIN isoform 2 (UniProt Q7Z6K5)
inactive: alvocidib -0.143 | Tubastatin A -0.016 | [1] -0.03 | defactinib 0 | [2] 0.114 | encorafenib -0.114 | [3] -0.26 | alisertib -0.077 | [4] -0.013 | gefitinib 0.005 | lapatinib -0.01 | pictilisib 0.028 | crizotinib -0.061 | [5] -0.015 | duvelisib -0.045 | gandotinib -0.056 | tozasertib 0.185 | doramapimod 0.113 | bafetinib -0.078 | [6] 0.155

ARHGDIA (UniProt P52565)
inactive: alvocidib -0.027 | Tubastatin A 0.059 | [1] -0.038 | defactinib -0.006 | [2] 0.048 | encorafenib -0.01 | [3] -0.013 | alisertib 0.014 | [4] 0.013 | gefitinib -0.003 | lapatinib -0.028 | pictilisib 0.018 | crizotinib 0.009 | [5] -0.163 | duvelisib -0.022 | gandotinib 0.052 | tozasertib -0.001 | doramapimod 0.001 | bafetinib 0.008 | [6] 0.012

ARHGDIB (UniProt P52566)
inactive: alvocidib 0.014 | Tubastatin A 0.05 | [1] -0.008 | defactinib -0.025 | [2] -0.026 | encorafenib 0.002 | [3] -0.004 | alisertib -0.011 | [4] 0.01 | gefitinib 0.006 | lapatinib 0.007 | pictilisib 0.023 | crizotinib 0.004 | [5] 0.03 | duvelisib 0.04 | gandotinib -0.039 | tozasertib 0.03 | doramapimod 0.039 | bafetinib -0.018 | [6] -0.055

ARHGEF18 (UniProt Q6ZSZ5)
inactive: alvocidib -0.084 | Tubastatin A 0.037 | [1] -0.003 | defactinib 0.027 | [2] -0.04 | encorafenib -0.01 | [3] 0.099 | alisertib 0.058 | [4] -0.027 | gefitinib 0.039 | lapatinib -0.014 | pictilisib 0.011 | crizotinib -0.04 | [5] -0.084 | duvelisib 0.034 | gandotinib 0.068 | tozasertib 0.024 | doramapimod 0.061 | bafetinib -0.014 | [6] 0.098

ARHGAP35 (UniProt Q9NRY4)
inactive: alvocidib -0.017 | Tubastatin A -0.041 | [1] 0.02 | defactinib 0.023 | [2] -0.011 | encorafenib 0.006 | [3] 0.014 | alisertib 0.021 | [4] 0 | gefitinib -0.019 | lapatinib -0.036 | pictilisib -0.009 | crizotinib -0.016 | [5] 0.001 | duvelisib -0.016 | gandotinib -0.054 | tozasertib 0.012 | doramapimod 0.011 | bafetinib -0.064 | [6] 0.08

ARAF (UniProt P10398)
inactive: alvocidib 0.036 | Tubastatin A -0.08 | [1] 0.019 | defactinib -0.039 | [2] -0.105 | [3] 0.093 | alisertib -0.048 | [4] 0.007 | gefitinib 0.019 | lapatinib -0.019 | pictilisib 0.011 | crizotinib -0.041 | [5] -0.045 | duvelisib -0.025 | gandotinib -0.077 | tozasertib -0.007 | doramapimod 0.006 | bafetinib -0.047 | [6] -0.031
active: encorafenib 0.307

ARSB (UniProt P15848)
inactive: alvocidib 0.143 | Tubastatin A -0.018 | [1] -0.044 | defactinib 0.046 | [2] 0.027 | encorafenib 0.012 | [3] -0.067 | alisertib 0.045 | [4] 0.084 | gefitinib 0.116 | lapatinib -0.021 | pictilisib -0.096 | crizotinib 0.043 | [5] -0.091 | duvelisib 0.008 | gandotinib -0.017 | tozasertib 0.008 | doramapimod 0.058 | bafetinib 0.057 | [6] 0.041

APOBR (UniProt Q0VD83)
inactive: alvocidib 0.04 | Tubastatin A 0.049 | [1] 0.002 | defactinib -0.011 | [2] 0.043 | encorafenib 0.005 | [3] -0.001 | alisertib 0.041 | [4] 0.038 | gefitinib 0.021 | lapatinib -0.024 | pictilisib -0.015 | crizotinib 0.014 | [5] 0.008 | duvelisib 0.072 | gandotinib -0.049 | tozasertib 0.037 | doramapimod -0.022 | bafetinib -0.002 | [6] -0.018

APLP2 (UniProt Q06481)
inactive: alvocidib -0.005 | Tubastatin A 0.059 | [1] -0.002 | defactinib -0.017 | [2] -0.14 | encorafenib -0.017 | [3] -0.059 | alisertib 0.018 | [4] 0.029 | gefitinib -0.017 | lapatinib -0.05 | pictilisib -0.018 | crizotinib -0.001 | [5] 0.021 | duvelisib -0.016 | gandotinib 0.017 | tozasertib 0.007 | doramapimod 0.008 | bafetinib -0.084 | [6] -0.033

ARFIP1 (UniProt P53367)
inactive: alvocidib 0.015 | Tubastatin A -0.014 | [1] 0.004 | defactinib -0.054 | [2] -0.007 | encorafenib -0.016 | [3] 0.016 | alisertib -0.011 | [4] -0.015 | gefitinib 0.006 | lapatinib 0.009 | pictilisib -0.018 | crizotinib -0.026 | [5] 0.014 | duvelisib -0.019 | gandotinib -0.009 | tozasertib 0.015 | doramapimod -0.004 | bafetinib -0.025 | [6] 0.051

ARID3A (UniProt Q99856)
inactive: alvocidib 0.038 | Tubastatin A -0.024 | [1] -0.022 | defactinib 0.062 | [2] 0.019 | encorafenib 0.022 | [3] 0.069 | alisertib 0.025 | [4] 0.019 | gefitinib -0.026 | lapatinib 0.013 | pictilisib -0.033 | crizotinib 0 | [5] 0.074 | duvelisib -0.024 | gandotinib -0.122 | tozasertib -0.044 | doramapimod -0.014 | bafetinib -0.031 | [6] -0.002

Copied from the entries so far (2 entries):
ARSB (UniProt P15848)
inactive: alvocidib 0.143 | Tubastatin A -0.018 | [1] -0.044 | defactinib 0.046 | [2] 0.027 | encorafenib 0.012 | [3] -0.067 | alisertib 0.045 | [4] 0.084 | gefitinib 0.116 | lapatinib -0.021 | pictilisib -0.096 | crizotinib 0.043 | [5] -0.091 | duvelisib 0.008 | gandotinib -0.017 | tozasertib 0.008 | doramapimod 0.058 | bafetinib 0.057 | [6] 0.041

APOBR (UniProt Q0VD83)
inactive: alvocidib 0.04 | Tubastatin A 0.049 | [1] 0.002 | defactinib -0.011 | [2] 0.043 | encorafenib 0.005 | [3] -0.001 | alisertib 0.041 | [4] 0.038 | gefitinib 0.021 | lapatinib -0.024 | pictilisib -0.015 | crizotinib 0.014 | [5] 0.008 | duvelisib 0.072 | gandotinib -0.049 | tozasertib 0.037 | doramapimod -0.022 | bafetinib -0.002 | [6] -0.018

Further records follow.

ASAP1 isoform 2 (UniProt Q9ULH1)
inactive: alvocidib -0.026 | Tubastatin A 0.015 | [1] -0.003 | defactinib -0.036 | [2] 0.025 | encorafenib -0.03 | [3] 0.064 | alisertib -0.01 | [4] 0.006 | gefitinib -0.02 | lapatinib -0.024 | pictilisib -0.026 | crizotinib -0.016 | [5] -0.029 | duvelisib -0.012 | gandotinib 0.035 | tozasertib -0.041 | doramapimod -0.001 | bafetinib 0.006 | [6] 0.058

ARF6 (UniProt P62330)
inactive: alvocidib -0.043 | Tubastatin A 0.055 | [1] -0.015 | defactinib -0.009 | [2] -0.022 | encorafenib 0.018 | [3] 0.035 | alisertib 0.006 | [4] 0.038 | gefitinib 0.055 | lapatinib 0.04 | pictilisib -0.006 | crizotinib 0.056 | [5] -0.09 | duvelisib 0.012 | gandotinib 0.055 | tozasertib 0.064 | doramapimod 0.057 | bafetinib 0.004 | [6] 0.047

ARFGEF2 (UniProt Q9Y6D5)
inactive: alvocidib 0.018 | Tubastatin A -0.006 | [1] 0.009 | defactinib 0.069 | [2] 0.015 | encorafenib 0.011 | [3] -0.009 | alisertib 0.012 | [4] 0.006 | gefitinib -0.01 | lapatinib -0.016 | pictilisib 0.009 | crizotinib -0.024 | [5] -0.022 | duvelisib -0.01 | gandotinib -0.117 | tozasertib -0.015 | doramapimod 0.011 | bafetinib -0.06 | [6] 0.063

ARFIP2 (UniProt P53365)
inactive: alvocidib 0.017 | Tubastatin A -0.04 | [1] -0.019 | defactinib 0.032 | [2] -0.013 | encorafenib -0.014 | [3] -0.01 | alisertib -0.033 | [4] -0.006 | gefitinib 0.011 | lapatinib 0.034 | pictilisib -0.062 | crizotinib 0.025 | [5] 0.016 | duvelisib 0.017 | gandotinib -0.043 | tozasertib 0.016 | doramapimod -0.001 | bafetinib 0.016 | [6] -0.029

ARHGAP21 (UniProt Q5T5U3)
inactive: alvocidib 0.032 | Tubastatin A 0.008 | [1] 0.03 | defactinib 0.015 | [2] 0.056 | encorafenib 0.079 | [3] 0.101 | alisertib -0.023 | [4] -0.007 | gefitinib -0.095 | lapatinib 0.081 | pictilisib -0.116 | crizotinib -0.073 | [5] 0.071 | duvelisib -0.007 | gandotinib 0.102 | tozasertib -0.092 | doramapimod 0.013 | bafetinib -0.133 | [6] 0.053
